Measured values taken from the supplement of paper PMC12067093, “Discovery and optimisation of a covalent ligand for TRIM25 and its application to targeted protein ubiquitination” (Chemical Science, 2025).
The other results are listed elsewhere or left out.

By UniProt entry, the sequences of proteins in these tests, tags left out. Where a name states a change or a piece, a line headed by the entry shows the natural chain unless it says otherwise.
UniProt Q13111, whole entry, looked up: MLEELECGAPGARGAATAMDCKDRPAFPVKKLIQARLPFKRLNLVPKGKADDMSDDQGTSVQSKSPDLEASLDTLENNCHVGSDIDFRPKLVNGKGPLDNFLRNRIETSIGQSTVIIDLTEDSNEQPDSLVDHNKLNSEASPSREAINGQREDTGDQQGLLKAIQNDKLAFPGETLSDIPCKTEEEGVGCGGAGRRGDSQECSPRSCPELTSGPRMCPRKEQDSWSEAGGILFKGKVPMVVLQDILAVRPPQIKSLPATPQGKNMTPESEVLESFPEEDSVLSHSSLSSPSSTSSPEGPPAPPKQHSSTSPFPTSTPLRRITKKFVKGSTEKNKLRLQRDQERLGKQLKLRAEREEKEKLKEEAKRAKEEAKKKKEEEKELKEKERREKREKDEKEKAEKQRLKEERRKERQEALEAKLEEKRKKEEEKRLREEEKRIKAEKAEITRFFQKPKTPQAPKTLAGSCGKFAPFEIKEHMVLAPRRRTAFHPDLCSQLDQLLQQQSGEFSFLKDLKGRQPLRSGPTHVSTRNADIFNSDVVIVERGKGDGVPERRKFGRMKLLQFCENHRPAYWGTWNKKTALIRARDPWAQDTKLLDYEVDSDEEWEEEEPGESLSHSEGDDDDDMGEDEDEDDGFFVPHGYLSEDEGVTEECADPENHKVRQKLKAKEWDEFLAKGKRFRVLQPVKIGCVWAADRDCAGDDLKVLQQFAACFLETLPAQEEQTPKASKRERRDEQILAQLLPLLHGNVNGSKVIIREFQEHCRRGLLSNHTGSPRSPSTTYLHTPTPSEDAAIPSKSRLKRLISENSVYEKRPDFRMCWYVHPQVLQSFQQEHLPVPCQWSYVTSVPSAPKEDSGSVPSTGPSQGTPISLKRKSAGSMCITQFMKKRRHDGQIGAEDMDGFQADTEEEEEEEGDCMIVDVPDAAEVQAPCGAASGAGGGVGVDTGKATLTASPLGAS
UniProt O14646: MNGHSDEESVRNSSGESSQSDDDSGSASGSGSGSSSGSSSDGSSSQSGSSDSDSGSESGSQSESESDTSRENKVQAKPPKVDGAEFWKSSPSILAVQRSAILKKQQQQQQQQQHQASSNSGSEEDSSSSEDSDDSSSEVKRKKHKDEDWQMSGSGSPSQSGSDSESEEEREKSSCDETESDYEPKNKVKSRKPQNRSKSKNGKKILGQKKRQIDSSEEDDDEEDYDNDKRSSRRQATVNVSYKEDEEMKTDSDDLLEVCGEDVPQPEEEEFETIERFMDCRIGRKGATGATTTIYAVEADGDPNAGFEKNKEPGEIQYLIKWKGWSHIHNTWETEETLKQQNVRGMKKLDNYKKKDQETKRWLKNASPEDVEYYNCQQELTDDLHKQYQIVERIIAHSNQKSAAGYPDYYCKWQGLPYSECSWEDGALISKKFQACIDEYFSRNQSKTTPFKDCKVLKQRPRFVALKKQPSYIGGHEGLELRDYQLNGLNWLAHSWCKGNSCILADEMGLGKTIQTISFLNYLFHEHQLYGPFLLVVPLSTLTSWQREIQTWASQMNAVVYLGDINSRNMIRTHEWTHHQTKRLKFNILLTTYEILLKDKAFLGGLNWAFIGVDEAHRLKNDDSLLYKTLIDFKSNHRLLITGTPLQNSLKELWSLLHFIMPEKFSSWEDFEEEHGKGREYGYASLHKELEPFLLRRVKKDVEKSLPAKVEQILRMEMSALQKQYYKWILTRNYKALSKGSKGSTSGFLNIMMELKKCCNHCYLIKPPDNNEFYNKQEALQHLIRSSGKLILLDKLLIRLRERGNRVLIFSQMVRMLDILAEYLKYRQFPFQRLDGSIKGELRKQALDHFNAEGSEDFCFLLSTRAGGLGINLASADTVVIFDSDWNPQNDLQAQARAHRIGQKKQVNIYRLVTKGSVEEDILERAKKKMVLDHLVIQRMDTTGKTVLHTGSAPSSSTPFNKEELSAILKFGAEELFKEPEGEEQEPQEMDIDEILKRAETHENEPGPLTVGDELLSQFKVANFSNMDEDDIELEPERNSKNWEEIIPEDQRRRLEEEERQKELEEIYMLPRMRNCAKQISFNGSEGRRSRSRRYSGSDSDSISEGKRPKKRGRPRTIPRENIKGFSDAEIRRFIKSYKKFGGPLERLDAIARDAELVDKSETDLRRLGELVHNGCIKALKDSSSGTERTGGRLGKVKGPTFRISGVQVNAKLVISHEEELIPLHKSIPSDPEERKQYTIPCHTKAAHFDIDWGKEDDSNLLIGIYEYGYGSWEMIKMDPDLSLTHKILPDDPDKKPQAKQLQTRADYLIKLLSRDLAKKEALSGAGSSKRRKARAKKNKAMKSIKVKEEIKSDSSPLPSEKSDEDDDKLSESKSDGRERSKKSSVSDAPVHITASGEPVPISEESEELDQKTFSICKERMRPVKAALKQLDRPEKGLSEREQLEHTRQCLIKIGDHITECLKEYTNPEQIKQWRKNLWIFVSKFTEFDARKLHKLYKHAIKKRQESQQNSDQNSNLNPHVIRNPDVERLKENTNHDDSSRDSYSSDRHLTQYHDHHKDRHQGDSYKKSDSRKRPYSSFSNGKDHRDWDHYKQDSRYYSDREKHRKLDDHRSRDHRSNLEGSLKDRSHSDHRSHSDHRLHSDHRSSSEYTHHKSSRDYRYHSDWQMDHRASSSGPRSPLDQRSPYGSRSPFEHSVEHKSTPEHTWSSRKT
UniProt Q9UDT6: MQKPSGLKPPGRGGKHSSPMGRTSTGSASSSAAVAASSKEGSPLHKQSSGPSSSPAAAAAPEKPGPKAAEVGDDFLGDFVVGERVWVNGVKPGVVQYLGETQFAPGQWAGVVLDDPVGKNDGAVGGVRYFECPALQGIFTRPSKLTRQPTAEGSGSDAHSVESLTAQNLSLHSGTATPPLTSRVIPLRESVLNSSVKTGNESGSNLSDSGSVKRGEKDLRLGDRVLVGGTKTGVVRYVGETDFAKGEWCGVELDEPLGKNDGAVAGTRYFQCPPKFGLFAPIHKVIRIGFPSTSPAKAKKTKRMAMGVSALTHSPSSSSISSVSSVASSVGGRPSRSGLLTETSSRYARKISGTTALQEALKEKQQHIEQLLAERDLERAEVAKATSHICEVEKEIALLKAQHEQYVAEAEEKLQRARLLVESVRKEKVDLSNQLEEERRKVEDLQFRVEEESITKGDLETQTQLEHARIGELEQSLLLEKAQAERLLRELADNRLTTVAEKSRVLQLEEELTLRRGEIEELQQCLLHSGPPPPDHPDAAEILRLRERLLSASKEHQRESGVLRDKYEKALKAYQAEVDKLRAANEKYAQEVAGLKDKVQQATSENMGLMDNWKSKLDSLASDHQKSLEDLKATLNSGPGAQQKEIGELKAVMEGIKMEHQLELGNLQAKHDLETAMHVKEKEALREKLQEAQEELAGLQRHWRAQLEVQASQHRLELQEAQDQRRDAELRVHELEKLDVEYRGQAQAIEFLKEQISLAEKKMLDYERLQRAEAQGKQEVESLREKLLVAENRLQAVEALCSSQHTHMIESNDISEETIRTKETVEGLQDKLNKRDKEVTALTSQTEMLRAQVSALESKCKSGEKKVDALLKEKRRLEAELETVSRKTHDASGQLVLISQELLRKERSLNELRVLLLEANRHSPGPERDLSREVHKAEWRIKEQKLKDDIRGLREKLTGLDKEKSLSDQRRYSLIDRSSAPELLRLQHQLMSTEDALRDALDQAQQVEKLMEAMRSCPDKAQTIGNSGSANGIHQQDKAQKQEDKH
UniProt Q9H078: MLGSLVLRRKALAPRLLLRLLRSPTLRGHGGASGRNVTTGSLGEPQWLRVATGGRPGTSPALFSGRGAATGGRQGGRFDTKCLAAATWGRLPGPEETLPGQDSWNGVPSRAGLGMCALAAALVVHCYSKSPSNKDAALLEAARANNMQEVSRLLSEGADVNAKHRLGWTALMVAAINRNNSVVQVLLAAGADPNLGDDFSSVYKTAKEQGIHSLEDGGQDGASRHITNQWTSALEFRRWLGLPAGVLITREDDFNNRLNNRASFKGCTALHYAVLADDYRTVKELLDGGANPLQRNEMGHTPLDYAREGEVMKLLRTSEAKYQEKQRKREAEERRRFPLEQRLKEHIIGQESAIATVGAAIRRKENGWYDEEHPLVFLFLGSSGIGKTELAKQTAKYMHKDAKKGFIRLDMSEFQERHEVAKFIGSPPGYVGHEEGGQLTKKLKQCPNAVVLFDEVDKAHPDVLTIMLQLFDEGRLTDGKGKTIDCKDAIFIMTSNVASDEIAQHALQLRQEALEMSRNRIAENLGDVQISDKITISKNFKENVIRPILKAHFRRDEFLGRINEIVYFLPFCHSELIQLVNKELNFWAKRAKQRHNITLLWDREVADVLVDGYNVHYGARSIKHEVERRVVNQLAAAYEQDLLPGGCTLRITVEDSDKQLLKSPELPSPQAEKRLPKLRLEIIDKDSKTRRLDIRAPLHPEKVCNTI
UniProt Q9H6Q4: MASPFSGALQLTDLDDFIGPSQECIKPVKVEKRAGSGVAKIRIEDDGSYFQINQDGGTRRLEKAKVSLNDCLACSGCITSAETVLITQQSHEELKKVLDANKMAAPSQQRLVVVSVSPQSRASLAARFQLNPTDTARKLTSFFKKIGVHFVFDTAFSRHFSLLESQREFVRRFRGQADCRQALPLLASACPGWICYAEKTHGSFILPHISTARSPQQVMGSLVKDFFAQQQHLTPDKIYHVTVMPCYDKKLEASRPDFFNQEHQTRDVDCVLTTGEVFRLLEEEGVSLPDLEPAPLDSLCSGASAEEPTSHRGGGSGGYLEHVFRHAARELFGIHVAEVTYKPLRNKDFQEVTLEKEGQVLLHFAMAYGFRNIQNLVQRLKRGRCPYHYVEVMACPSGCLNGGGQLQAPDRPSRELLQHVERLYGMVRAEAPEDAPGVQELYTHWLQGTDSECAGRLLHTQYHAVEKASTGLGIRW
UniProt P30622: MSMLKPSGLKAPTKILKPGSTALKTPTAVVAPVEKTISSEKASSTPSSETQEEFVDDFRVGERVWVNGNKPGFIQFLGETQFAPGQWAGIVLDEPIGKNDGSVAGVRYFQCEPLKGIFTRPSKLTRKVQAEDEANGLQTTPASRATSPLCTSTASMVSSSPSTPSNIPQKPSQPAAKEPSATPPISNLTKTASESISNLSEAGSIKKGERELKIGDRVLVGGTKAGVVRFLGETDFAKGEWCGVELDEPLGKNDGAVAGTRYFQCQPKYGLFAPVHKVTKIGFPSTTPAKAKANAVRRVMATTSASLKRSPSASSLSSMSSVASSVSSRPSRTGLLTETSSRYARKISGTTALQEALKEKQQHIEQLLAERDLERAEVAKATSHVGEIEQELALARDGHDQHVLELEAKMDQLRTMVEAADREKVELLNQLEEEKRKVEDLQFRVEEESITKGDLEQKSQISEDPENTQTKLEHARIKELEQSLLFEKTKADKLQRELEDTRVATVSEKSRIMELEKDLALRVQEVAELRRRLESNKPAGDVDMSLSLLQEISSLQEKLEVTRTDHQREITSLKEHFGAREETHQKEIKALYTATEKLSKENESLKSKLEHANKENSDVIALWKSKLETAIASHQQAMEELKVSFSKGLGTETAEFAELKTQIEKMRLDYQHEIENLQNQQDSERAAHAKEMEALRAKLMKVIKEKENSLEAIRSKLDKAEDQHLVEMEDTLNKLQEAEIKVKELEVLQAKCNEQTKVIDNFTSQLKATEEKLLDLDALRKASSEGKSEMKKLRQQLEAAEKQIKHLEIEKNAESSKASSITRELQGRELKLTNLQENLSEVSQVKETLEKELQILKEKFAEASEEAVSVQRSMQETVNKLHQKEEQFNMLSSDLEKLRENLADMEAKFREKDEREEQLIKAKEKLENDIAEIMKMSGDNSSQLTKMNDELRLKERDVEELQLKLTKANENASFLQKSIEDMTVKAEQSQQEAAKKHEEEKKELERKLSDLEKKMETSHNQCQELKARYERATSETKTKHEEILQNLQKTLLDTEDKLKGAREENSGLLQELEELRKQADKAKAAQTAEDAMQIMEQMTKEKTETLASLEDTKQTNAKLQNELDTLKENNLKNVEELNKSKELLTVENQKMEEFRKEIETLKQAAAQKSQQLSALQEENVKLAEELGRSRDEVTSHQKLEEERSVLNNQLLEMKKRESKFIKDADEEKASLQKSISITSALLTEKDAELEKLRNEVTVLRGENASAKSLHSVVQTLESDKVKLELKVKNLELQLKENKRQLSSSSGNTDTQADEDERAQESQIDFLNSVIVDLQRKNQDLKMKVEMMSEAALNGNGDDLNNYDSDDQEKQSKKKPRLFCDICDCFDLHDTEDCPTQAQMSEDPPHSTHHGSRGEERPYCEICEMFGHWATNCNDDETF

Compound: CC1Cc2ccccc2N1C(=O)C1CCCN(C1)C(=O)CCl (mixture of isomers) [TRIM25 ligand 11 (diastereomer mixture)]
Test: probe-labelled cysteine peptide fold change vs DMSO (competition) (log2 fold change); higher = less target engagement (more negative = stronger competition)
Conditions: THP-1, incubation time: 4 h
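Note: competitive chemoproteomic profiling in live THP-1 cells with an iodoacetamide desthiobiotin (IA-DTB) probe, comparing probe-labelled peptide intensities in compound-treated cells against DMSO-treated controls.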

Target | probe-labelled cysteine peptide fold change (10 µM) | probe-labelled cysteine peptide fold change (50 µM)
CHAF1A_Q13111_79_SPDLEASLDTLENNCHVGSDIDFRPK (UniProt Q13111) | 0.0541 | -0.182
CLSPN_Q9HAW4_397_ETQIITGSDESCR (UniProt Q9HAW4) | -0.133 | -0.301
CHD1L_Q86WJ1_156_FHVLLTTYEICLK (UniProt Q86WJ1) | 0.033 | 0.177
CHD1_O14646_497_DYQLNGLNWLAHSWCK (UniProt O14646) | 0.0432 | 0.129
CLIP2_Q9UDT6_272_YFQCPPK (UniProt Q9UDT6) | 0.0138 | -0.0164
CLTC_Q00610_292_YGYIHLYDLETGTCIYMNR (UniProt Q00610) | 0.262 | 0.218
CHM_P24386_302_RMLMKFLTFCMEYEK (UniProt P24386) | -0.00353 | 0.00272
CLPB_Q9H078_647_VVNQLAAAYEQDLLPGGCTLR (UniProt Q9H078) | 0.543 | 0.0536
CIAO3_Q9H6Q4_246_IYHVTVMPCYDK (UniProt Q9H6Q4) | -0.0935 | -0.161
CLIP1_P30622_111_YFQCEPLK (UniProt P30622) | -0.0948 | -0.00738
CHERP_Q8IWX8_246_VVVPIYCTSFLAVEEDK (UniProt Q8IWX8) | 0.0777 | 0.156
CHAMP1_Q96JM3_787_HLTHCQSR (UniProt Q96JM3) | 0.0933 | -0.309
